In paper PMC7819943, “Rice protein-binding microarrays: a tool to detect cis-acting elements near promoter regions in rice” one finds binding signal data, which are given here for 54 sequences.

Some of the results follow.

The target in the test is T1, OsSMF1 (Oryza sativa, UniProt Q6ZLB0 1-436).
T1 sequence: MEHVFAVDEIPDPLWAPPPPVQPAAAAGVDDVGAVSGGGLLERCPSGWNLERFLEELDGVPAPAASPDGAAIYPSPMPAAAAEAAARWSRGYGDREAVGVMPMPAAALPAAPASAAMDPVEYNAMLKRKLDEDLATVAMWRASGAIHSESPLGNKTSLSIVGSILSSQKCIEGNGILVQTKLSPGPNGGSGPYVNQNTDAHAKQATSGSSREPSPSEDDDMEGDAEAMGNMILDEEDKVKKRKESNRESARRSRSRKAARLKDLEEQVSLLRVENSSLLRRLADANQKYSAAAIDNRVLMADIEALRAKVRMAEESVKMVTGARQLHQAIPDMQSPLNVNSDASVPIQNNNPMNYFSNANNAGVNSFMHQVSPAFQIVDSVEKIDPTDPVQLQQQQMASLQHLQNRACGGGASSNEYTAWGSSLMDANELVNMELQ
Nature of the test: protein-binding microarray (RPBM); PBS, 2% BSA, 51.3 ng/ul salmon testes DNA, 50 uM zinc acetate, 200 nM TF, 25 C, 1 h; high values mean tight binding. The conditions noted are these: protein: recombinant; tags: N-terminal polyhistidine and DsRed monomer fusion (pET32a); chain copies: 2; label: CyDye5-dUTP incorporated in the synthesized complementary strand; 3' TTTTT single-stranded linker to array surface; dsDNA, one strand shown. A digest of the protocol: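 The binding signal is fluorescence intensity per array feature (arbitrary units). Readings came from an Axon 4000B scanner after a washed, 2% BSA-blocked, double-stranded custom Agilent array had been incubated for 1 h at 25 °C with 200 nM protein and 50 µM zinc acetate. The protein was a Ni–NTA-purified transcription factor fused N-terminally to polyhistidine and DsRed, expressed in E. coli BL21-CodonPlus.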
As to “TCCCAGGGGTATTTTGGTCATTTGGATAAAATTATATAGTCGGAGTCACCTAGTGCAG”, the binding signal was 3270 fluorescence intensity (a.u.).

Regarding “AGCTCTCTGTCGCTGTTCGGGAGTGCGCATTCTGTTTGCCCGGAGTCACCTAGTGCAG”, the binding signal is 34600 fluorescence intensity (a.u.).

Take “TTTTAATCCGAGTTTCAGACCACGATGGCCATTTGTTTCGCGGAGTCACCTAGTGCAG”: the binding signal was 3460 fluorescence intensity (a.u.).

Regarding “AGCAAATTTTGCCATGTCACATCGACATCATCCCGGCACGCGGAGTCACCTAGTGCAG”, the binding signal is 13600 fluorescence intensity (a.u.).

Consider “ATCAACTGATCCTGACTCCGTTACCACCCGGCATATTGTTCGGAGTCACCTAGTGCAG”, for which the binding signal is 4000 fluorescence intensity (a.u.).

As to “GAGGAGGCGTCGGCGTCACGGCGGACAGCGATGGGGTGCGCGGAGTCACCTAGTGCAG”, the binding signal was 3320 fluorescence intensity (a.u.).

As for “CTATTGGGCTTGCAAGCACACGCTGACGTACTTTGCGCCACGGAGTCACCTAGTGCAG”, the binding signal is 5160 fluorescence intensity (a.u.).

As for “GACTCCACCAAGAACACAACTGCTGACGATTTGACGACTCCGGAGTCACCTAGTGCAG”, the binding signal was 3380 fluorescence intensity (a.u.).

“CCATTGGGCCATGTGGCCCGTAACAGCAGCCTTGTTTCGACGGAGTCACCTAGTGCAG”: the binding signal is 3840 fluorescence intensity (a.u.).

“GTACTGCAGAGGATCTCAATTGTCCAAAGAGATATGTACACGGAGTCACCTAGTGCAG”: the binding signal was 3210 fluorescence intensity (a.u.).

With “TTGCCCAAGAGCTGACCCAACTCATTAAAATTACGCTTCTCGGAGTCACCTAGTGCAG”, the binding signal was 3190 fluorescence intensity (a.u.).

Regarding “GCTAAGAGGCCCGCTGCCACGCCACCCCGGCCACCTCAGCCGGAGTCACCTAGTGCAG”, the binding signal is 14000 fluorescence intensity (a.u.).

For “GTGGCCGATGCTGACGACCTCCGCGATGAACTCCTTCATCCGGAGTCACCTAGTGCAG”, the binding signal is 3170 fluorescence intensity (a.u.).

As for “TTTATAGGATTTCTTATATAGATACCAAAATTTGACAGAACGGAGTCACCTAGTGCAG”, the binding signal is 35700 fluorescence intensity (a.u.).

Regarding “AGGGAAGGGTAATATATGTCAATTTGTGATTATACTGTTTCGGAGTCACCTAGTGCAG”, the binding signal was 3140 fluorescence intensity (a.u.).

For “GCTGGTTTGGATTTCTCAGCTCAGCACCAAGCTGATGACGCGGAGTCACCTAGTGCAG”, the binding signal is 4780 fluorescence intensity (a.u.).

As to “AATGATAAGGTTTGATATTTTAAAGTCTTAAGAAAACGAGCGGAGTCACCTAGTGCAG”, the binding signal was 3200 fluorescence intensity (a.u.).

For the sequence “AATATAGAAGGTACACTCCATTTGCACACTAGGTACAGAACGGAGTCACCTAGTGCAG”, the binding signal is 6080 fluorescence intensity (a.u.).

Turning to “TCTTCCTCATCGGCCGCGGGGCCGACGCGCTCACCGGCGTCGGAGTCACCTAGTGCAG”, the binding signal was 3290 fluorescence intensity (a.u.).

Turning to “CCCTCGCCTTCTCCGATTTCCCTCGCGTGGAATCCCCTTGCGGAGTCACCTAGTGCAG”, the binding signal was 3140 fluorescence intensity (a.u.).

Consider “ACACCATGCGTATGATGCAATACCTATTGACTCCATTGAACGGAGTCACCTAGTGCAG”, for which the binding signal was 3380 fluorescence intensity (a.u.).

Take “TTTGGTTAGTGAATTTAGCTATCCTCTCCTTGACTTCCTACGGAGTCACCTAGTGCAG”: the binding signal is 3660 fluorescence intensity (a.u.).

As for “TCAGGAATTGGACGGCCAGGATTTCTCCACACCATTGCCACGGAGTCACCTAGTGCAG”, the binding signal is 3420 fluorescence intensity (a.u.).

In the case of “GAGCAAGCTCTCTCAAGCTCGGGCACTTTTGGCGAACGTGCGGAGTCACCTAGTGCAG”, the binding signal is 3570 fluorescence intensity (a.u.).

In the case of “TGATCAAATCGCTCATAAAACATGTGCATCTTAGATTATACGGAGTCACCTAGTGCAG”, the binding signal is 3160 fluorescence intensity (a.u.).

For the sequence “CTTCTCTTCTTCCCCACATCCAGTTCGATTCTCATCTCTCCGGAGTCACCTAGTGCAG”, the binding signal is 12600 fluorescence intensity (a.u.).

As to “ATTTATAAGCTCTCTACAAGATATCCATGTCAGCATATTTCGGAGTCACCTAGTGCAG”, the binding signal was 10300 fluorescence intensity (a.u.).

As to “AATTGGTGCTATCAAAATTTGCTTATGTTTTGGCATTGTCCGGAGTCACCTAGTGCAG”, the binding signal was 3480 fluorescence intensity (a.u.).

Consider “TTGCCCTCGGAGACCGAGATGTCGTGGAGCCCCGCGACCGCGGAGTCACCTAGTGCAG”, for which the binding signal was 3480 fluorescence intensity (a.u.).

For “CCGCCAACCCGCCTCCACGCCTACGGAGACTGCCACGCGGCGGAGTCACCTAGTGCAG”, the binding signal is 9410 fluorescence intensity (a.u.).

Turning to “GCTAGCGTCGCCGTCGTGCGTGGCGTGACCCGTCAGCTGGCGGAGTCACCTAGTGCAG”, the binding signal is 9620 fluorescence intensity (a.u.).

Take “ATCGGACGATGAGAACAACACTGGTGAATCGCCAAGTACACGGAGTCACCTAGTGCAG”: the binding signal was 22300 fluorescence intensity (a.u.).

In the case of “CCGTAAATTAAGCCACGTTCTAGAGGCGCATAACGTCAAGCGGAGTCACCTAGTGCAG”, the binding signal was 3870 fluorescence intensity (a.u.).

For the sequence “CGACTACTTGGGCGGGAGGGAAGCCGAGTAGATCCTTTTACGGAGTCACCTAGTGCAG”, the binding signal is 4860 fluorescence intensity (a.u.).

For the sequence “TATGTGACGCTCCACGCCGACACACATTTGCATTTGGCTCCGGAGTCACCTAGTGCAG”, the binding signal was 3840 fluorescence intensity (a.u.).

Take “ATGCATATGCGAGGAATACAAGTATACAAGATGACAAGGACGGAGTCACCTAGTGCAG”: the binding signal was 3210 fluorescence intensity (a.u.).

Turning to “ACCTATTATACACACATAACTTTTCAGCCACATCATCTTTCGGAGTCACCTAGTGCAG”, the binding signal was 6860 fluorescence intensity (a.u.).

Regarding “AGCGATGAAGAGATCGGTCCCGATTTCTTGGCGGCGGTGGCGGAGTCACCTAGTGCAG”, the binding signal is 36000 fluorescence intensity (a.u.).

On to “TACAGCGTCATTGCAAGAATGGTGACGGGGTTTGAGGTTGCGGAGTCACCTAGTGCAG”, for which the binding signal is 6110 fluorescence intensity (a.u.).

“CGGTACTAGTTACGTAGCCCAGCAACATGGCGCCATCCGTCGGAGTCACCTAGTGCAG”: the binding signal is 4410 fluorescence intensity (a.u.).

“TTAAATGCACCCCTACTCAACCCCTCAATCGACGTGTTGGCGGAGTCACCTAGTGCAG”: the binding signal was 4180 fluorescence intensity (a.u.).

“AGGAGGAGGAGGAGGCGGTGGCGGTGTTGCTGTCCGGTGACGGAGTCACCTAGTGCAG”: the binding signal is 3750 fluorescence intensity (a.u.).

For the sequence “CACGTGTACAAGGGCAAAGCGCAACACCGACCCGAGTCCACGGAGTCACCTAGTGCAG”, the binding signal is 39300 fluorescence intensity (a.u.).

Take “TGCAGCTGGTGCTGCTATTGATGTGCTGTTGTCGAGGCCGCGGAGTCACCTAGTGCAG”: the binding signal is 3460 fluorescence intensity (a.u.).

On to “GCATAGTCCTTCCTCCAAGACTCCAAATGATCCCTCTCAACGGAGTCACCTAGTGCAG”, for which the binding signal is 35600 fluorescence intensity (a.u.).

Consider “GTGCTGTAATCTCCGCTCTTTGCTCGCTGACTTGCATTATCGGAGTCACCTAGTGCAG”, for which the binding signal is 3800 fluorescence intensity (a.u.).

As to “CTCTGTACACGTGTAGAGAAAATTTATACTATGAATATTACGGAGTCACCTAGTGCAG”, the binding signal was 6500 fluorescence intensity (a.u.).

Consider “CCGCCACCGCGCTCACTGACGTCGTGGCCCCACCGCCTCTCGGAGTCACCTAGTGCAG”, for which the binding signal is 5810 fluorescence intensity (a.u.).

For the sequence “GTTCAAATTGGATCGTGACGAGGAAGCCTTTTGCCGTCGTCGGAGTCACCTAGTGCAG”, the binding signal was 4010 fluorescence intensity (a.u.).

Take “CCCCTTTCTCTCTCCTCGCATCGCCACCTCACCTCACCTCCGGAGTCACCTAGTGCAG”: the binding signal was 5990 fluorescence intensity (a.u.).

Consider “CATACATGGAAAAGACAAATCGCCTGGTGCATGAGGCGCTCGGAGTCACCTAGTGCAG”, for which the binding signal is 40600 fluorescence intensity (a.u.).

With “TCTACTGATCCAATCGTGTCATCCAAGGGGTGGTAGCGATCGGAGTCACCTAGTGCAG”, the binding signal is 4360 fluorescence intensity (a.u.).

On to “CCCGCTTCTTCCCCGCTGCTTGAATCAGTCGTATCCTCACCGGAGTCACCTAGTGCAG”, for which the binding signal was 3470 fluorescence intensity (a.u.).

As for “TCAACTCCATCTGGTCATCAATCACTCTACCTTCATCTTCCGGAGTCACCTAGTGCAG”, the binding signal is 3250 fluorescence intensity (a.u.).
